# Measured values from publication doi:10.1101/2020.02.03.932111.
# These are yes or no findings as the source states them, for the method shown. Some results given as binding are weak or reduced against the parent protein; the word gives no strength. Tags and fused reporters may be left off the sequences shown.
# Columns and labels:
# TF-Cub-Anp1p (yeast) = target: T1, TF-Cub-Anp1p (yeast) (UniProt P32629); test: two-hybrid
# T1 sequence: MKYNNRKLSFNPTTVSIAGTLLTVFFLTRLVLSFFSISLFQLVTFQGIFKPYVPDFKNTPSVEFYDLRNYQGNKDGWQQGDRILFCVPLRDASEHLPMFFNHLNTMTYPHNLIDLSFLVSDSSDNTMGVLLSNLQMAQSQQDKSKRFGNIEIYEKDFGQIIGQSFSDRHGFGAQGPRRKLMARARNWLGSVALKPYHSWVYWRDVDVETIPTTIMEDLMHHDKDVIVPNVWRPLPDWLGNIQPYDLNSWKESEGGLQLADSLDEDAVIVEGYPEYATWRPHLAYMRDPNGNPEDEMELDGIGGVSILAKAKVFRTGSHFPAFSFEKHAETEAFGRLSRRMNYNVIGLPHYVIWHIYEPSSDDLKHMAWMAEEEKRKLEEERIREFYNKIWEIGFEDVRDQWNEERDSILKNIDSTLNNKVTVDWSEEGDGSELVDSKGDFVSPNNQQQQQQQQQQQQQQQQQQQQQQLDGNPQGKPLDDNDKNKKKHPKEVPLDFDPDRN
# [1] = target: T2, TF-Cub-GAUT1 (galacturonosyltransferase1, full length, N-terminally tagged with a TF-Cub fusion) (Arabidopsis thaliana) (UniProt Q9LE59); test: two-hybrid
# T2 sequence: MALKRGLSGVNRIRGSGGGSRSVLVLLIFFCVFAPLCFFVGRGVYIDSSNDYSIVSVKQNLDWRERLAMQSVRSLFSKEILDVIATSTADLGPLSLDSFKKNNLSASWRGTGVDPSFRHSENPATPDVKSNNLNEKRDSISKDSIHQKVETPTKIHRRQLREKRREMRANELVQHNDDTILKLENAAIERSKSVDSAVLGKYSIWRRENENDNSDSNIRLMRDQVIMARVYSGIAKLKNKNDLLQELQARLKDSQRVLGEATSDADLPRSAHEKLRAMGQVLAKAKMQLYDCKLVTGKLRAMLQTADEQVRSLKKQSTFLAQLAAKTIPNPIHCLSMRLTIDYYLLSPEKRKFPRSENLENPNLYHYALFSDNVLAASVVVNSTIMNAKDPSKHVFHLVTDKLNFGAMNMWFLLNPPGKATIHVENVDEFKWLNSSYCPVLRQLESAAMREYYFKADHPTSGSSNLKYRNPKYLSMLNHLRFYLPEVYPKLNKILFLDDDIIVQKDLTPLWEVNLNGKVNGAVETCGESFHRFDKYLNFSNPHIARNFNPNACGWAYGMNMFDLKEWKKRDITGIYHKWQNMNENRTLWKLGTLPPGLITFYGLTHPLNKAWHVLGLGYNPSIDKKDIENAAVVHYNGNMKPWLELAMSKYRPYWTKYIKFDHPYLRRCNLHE
binder,measurement,setting,value
"NubG-GAUT7 (full-length GAUT7 fused with NubG) (protein, UniProt Q9ZVI7 1-619) MKGGGGGGGGGGGGKRRWKVLVIGVLVLVILSMLVPLAFLLGLHNGFHSPGFVTVQPASSFESFTRINATKHTQRDVSERVDEVLQKINPVLPKKSDINVGSRDVNATSGTDSKKRGLPVSPTVVANPSPANKTKSEASYTGVQRKIVSGDETWRTCEVKYGSYCLWREENKEPMKDAKVKQMKDQLFVARAYYPSIAKMPSQSKLTRDMKQNIQEFERILSESSQDADLPPQVDKKLQKMEAVIAKAKSFPVDCNNVDKKLRQILDLTEDEASFHMKQSVFLYQLAVQTMPKSLHCLSMRLTVEHFKSDSLEDPISEKFSDPSLLHFVIISDNILASSVVINSTVVHARDSKNFVFHVLTDEQNYFAMKQWFIRNPCKQSTVQVLNIEKLELDDSDMKLSLSAEFRVSFPSGDLLASQQNRTHYLSLFSQSHYLLPKLFDKLEKVVILDDDVVVQRDLSPLWDLDMEGKVNGAVKSCTVRLGQLRSLKRGNFDTNACLWMSGLNVVDLARWRALGVSETYQKYYKEMSSGDESSEAIALQASLLTFQDQVYALDDKWALSGLGYDYYINAQAIKNAAILHYNGNMKPWLELGIPNYKNYWRRHLSREDRFLSDCNVNP",binding,TF-Cub-Anp1p (yeast),no binding
same,binding,[1],binds
